# Measured values from doi:10.1101/2021.07.07.451439.
# The chains behind the UniProt entries cited, without tags or fusion partners.
# UniProt Q96EI5: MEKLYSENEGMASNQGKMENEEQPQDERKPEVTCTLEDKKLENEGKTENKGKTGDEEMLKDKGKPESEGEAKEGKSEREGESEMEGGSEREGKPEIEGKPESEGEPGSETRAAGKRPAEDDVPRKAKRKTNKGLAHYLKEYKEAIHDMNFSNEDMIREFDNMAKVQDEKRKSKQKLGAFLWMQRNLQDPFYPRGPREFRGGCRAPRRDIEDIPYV
# UniProt P51784: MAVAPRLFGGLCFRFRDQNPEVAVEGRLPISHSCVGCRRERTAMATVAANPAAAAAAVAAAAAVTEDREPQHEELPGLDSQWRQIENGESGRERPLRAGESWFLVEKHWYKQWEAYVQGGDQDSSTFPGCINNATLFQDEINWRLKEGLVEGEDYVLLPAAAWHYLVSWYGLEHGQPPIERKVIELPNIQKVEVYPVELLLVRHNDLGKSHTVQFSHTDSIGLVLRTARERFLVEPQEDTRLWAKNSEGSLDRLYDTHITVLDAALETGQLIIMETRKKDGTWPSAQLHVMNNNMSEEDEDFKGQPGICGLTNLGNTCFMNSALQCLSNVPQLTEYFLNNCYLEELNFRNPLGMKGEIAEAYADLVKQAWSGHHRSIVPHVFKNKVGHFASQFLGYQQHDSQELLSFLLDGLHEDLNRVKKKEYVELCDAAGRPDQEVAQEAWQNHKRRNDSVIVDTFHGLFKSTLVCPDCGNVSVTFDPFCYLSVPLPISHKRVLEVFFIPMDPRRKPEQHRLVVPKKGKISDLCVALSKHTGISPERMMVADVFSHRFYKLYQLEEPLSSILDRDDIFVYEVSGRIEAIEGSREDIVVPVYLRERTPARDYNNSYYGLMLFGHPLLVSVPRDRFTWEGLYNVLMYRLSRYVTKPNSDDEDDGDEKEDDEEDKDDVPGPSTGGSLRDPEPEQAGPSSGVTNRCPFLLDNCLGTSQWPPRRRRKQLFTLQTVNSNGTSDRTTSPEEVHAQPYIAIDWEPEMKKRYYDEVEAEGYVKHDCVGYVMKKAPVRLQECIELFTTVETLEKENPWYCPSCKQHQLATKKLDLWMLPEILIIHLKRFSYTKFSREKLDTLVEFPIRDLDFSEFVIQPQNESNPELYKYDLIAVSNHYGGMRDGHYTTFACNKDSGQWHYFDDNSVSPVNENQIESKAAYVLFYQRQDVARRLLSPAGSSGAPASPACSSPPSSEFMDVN
# UniProt Q15170: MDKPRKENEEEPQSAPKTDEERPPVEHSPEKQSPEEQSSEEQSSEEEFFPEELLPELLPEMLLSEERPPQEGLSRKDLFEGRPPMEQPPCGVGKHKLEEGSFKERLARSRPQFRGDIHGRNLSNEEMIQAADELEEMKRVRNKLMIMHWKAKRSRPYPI
# These are yes or no findings as the source states them, for the method shown. Binding seen in cells or lysates may run through a third protein. Some results given as binding are weak or reduced against the parent protein; the word gives no strength.
# Key:
# [1] = target: GFP-TCEAL4 WT isoform-1 (human) (UniProt Q96EI5); experiment: co-IP
# [2] = target: USP11 (endogenous) (human (endogenous in U2OS and HCT116)) (UniProt P51784); experiment: co-IP
substance,measurement,setting,value
TCEAL1 (endogenous) (from UniProt Q15170 1-159),binding,[1],binds
same,binding,[2],binds
